This is an account of results in publication PMC3079779 (Toxicology and applied pharmacology, 2011).

Amino acid sequences for entries named in this document (tags omitted).
UniProt P22001, whole entry: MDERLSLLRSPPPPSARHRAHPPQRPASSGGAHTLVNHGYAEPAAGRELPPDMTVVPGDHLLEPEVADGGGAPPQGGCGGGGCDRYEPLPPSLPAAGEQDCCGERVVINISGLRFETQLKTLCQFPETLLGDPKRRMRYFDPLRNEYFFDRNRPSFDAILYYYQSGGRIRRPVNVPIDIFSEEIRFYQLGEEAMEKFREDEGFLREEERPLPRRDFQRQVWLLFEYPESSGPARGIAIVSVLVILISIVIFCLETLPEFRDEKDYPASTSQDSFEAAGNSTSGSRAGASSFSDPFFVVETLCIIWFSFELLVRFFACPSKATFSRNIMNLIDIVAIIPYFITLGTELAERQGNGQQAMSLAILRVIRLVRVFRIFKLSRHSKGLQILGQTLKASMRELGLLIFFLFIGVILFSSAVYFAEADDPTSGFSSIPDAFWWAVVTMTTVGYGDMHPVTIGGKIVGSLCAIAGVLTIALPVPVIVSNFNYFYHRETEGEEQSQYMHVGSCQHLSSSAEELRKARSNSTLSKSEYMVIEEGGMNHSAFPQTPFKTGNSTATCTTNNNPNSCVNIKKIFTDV

The target of this test is human KV1.3 voltage gated K+ channel (Homo sapiens, UniProt P22001). Kind of test: KV1.3 thallium influx assay in KV1.3 stably transfected CHO DUKX cells.

Regarding `CC(C)(C)CC(C)(C)c1ccc(OCCOCC[N+](C)(C)Cc2ccccc2)cc1` [benzethonium chloride], the “KV 1.3 Efficacy (inhibition of thallium influx as a % of positive control)” value is 93 ± 20%.
